The text below walks through data of PMC5291280.

Amino acid sequences for entries named in this document (tags omitted).
UniProt Q8ND56: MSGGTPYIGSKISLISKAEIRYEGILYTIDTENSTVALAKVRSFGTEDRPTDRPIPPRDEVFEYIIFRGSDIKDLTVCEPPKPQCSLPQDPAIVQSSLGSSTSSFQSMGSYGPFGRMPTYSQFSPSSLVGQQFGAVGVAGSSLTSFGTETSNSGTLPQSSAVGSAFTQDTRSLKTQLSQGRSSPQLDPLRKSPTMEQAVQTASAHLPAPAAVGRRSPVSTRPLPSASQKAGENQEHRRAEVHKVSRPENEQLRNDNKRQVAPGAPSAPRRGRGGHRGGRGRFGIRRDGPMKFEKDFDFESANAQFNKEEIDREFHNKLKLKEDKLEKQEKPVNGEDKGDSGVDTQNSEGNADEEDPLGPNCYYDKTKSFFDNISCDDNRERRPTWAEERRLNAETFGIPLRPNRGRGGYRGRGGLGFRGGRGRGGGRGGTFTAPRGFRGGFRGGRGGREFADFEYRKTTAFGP
UniProt P06730: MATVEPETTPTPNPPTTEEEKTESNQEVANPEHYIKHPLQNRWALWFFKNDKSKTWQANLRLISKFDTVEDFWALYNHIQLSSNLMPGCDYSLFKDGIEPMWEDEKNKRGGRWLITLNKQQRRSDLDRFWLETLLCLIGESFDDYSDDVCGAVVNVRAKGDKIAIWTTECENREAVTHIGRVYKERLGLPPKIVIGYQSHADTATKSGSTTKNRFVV
UniProt O60573: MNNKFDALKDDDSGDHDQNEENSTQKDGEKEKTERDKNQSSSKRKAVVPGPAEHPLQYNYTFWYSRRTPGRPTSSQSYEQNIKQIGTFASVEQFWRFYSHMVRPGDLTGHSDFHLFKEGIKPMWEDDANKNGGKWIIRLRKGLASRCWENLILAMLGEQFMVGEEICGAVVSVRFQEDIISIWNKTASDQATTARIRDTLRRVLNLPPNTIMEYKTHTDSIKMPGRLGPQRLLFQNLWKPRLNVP

Holding throughout (assay): co-IP; anti-FLAG M2 beads on lysates of transfected HEK293T cells, eluted with SDS loading buffer, western blot; lysates with or without RNase A (40 μg/ml); in some panels cells also given siRNA against β-globin, DDX6, UNR or unrip, or co-transfected with HA-DDX6
(In general: Immunoblotting shows a protein as a band on a membrane.)

Test [1] deals with T1, FLAG-4E-TΔCHD 1-694 (human) (UniProt Q9NRA8).
T1 sequence: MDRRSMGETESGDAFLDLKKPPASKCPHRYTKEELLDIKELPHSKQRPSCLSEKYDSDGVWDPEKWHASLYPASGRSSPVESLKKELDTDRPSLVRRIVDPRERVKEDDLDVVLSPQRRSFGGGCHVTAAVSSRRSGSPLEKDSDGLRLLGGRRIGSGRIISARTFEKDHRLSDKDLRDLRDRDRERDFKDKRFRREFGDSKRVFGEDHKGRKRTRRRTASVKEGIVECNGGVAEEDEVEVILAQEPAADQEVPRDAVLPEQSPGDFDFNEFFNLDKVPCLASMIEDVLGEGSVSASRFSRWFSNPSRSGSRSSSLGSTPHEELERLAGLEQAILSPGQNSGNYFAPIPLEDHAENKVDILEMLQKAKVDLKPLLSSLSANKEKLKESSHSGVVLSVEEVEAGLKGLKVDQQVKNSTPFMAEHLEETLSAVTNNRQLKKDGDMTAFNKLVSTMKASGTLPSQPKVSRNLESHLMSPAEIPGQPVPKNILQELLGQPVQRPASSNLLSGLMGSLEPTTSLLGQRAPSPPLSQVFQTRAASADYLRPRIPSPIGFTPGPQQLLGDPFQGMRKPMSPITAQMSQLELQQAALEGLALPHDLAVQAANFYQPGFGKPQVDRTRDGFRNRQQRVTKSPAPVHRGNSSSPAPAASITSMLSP

The target of test [2] is T2, FLAG-4E-TΔCHDΔC (human) (UniProt Q9NRA8).
T2 sequence: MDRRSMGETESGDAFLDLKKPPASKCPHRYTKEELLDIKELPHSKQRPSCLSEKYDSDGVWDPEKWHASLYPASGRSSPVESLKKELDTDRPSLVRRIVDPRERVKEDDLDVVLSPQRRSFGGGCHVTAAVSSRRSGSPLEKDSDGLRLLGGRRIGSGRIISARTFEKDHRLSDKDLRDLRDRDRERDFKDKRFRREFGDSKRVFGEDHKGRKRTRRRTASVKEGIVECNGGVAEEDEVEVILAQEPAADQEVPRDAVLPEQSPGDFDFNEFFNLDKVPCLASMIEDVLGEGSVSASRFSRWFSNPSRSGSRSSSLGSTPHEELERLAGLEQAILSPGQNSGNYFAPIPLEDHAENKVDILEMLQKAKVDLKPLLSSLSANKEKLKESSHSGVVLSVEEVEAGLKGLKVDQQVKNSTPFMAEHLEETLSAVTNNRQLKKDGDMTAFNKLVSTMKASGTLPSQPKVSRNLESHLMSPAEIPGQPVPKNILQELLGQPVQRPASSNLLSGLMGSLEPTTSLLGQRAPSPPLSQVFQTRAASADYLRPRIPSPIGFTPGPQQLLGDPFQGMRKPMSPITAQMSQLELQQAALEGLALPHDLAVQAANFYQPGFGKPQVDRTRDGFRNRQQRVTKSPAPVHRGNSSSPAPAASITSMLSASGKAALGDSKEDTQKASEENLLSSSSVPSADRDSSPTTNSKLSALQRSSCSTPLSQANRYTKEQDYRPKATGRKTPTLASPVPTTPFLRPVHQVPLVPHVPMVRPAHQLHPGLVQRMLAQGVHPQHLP

The target in test [3] is T3, FLAG-4E-TΔI (human) (UniProt Q9NRA8).
T3 sequence: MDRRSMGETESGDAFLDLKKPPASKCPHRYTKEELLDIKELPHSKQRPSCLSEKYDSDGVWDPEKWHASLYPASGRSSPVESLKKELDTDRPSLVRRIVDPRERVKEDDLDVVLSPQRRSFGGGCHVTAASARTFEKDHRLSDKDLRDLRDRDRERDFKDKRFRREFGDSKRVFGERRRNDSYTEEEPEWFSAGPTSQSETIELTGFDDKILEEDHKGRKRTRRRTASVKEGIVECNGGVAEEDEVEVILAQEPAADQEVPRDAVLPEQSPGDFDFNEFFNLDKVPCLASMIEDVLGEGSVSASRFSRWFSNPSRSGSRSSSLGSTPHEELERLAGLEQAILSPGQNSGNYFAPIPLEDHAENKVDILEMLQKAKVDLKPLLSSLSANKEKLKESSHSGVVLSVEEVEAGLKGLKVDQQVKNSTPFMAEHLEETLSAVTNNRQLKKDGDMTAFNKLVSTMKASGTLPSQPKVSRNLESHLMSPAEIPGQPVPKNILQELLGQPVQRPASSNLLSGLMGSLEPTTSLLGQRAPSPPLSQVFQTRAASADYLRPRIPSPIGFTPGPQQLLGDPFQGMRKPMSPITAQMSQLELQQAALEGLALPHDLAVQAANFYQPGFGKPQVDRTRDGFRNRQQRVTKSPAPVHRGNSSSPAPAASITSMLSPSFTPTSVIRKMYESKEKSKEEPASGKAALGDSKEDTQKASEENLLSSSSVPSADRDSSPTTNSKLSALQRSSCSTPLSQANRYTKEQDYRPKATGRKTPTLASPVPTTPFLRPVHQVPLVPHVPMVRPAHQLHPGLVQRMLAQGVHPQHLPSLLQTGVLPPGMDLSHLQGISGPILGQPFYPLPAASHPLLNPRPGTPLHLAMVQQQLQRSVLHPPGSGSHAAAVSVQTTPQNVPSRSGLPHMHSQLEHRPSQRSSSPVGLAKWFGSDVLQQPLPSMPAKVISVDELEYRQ

No constants are given. Whether binding was seen depends on the method and setting. In cells and extracts the contact can be indirect. Some entries that bind do so weakly or less than the wild type. Where a sequence is shown, tags or fusion partners need not be part of it.

Take “LSM14A, endogenous (from UniProt Q8ND56 1-463)”: the binding entry in test [1], in test [2] and in test [3] was “binds” each time.
As for “eIF4E1, endogenous (from UniProt P06730 1-217)”, the binding entry in test [1], in test [2] and in test [3] was “binds” each time.
Consider “eIF4E2, endogenous (from UniProt O60573 1-245)”, for which, in test [3], the binding entry is “binds”.

B1: PAT1B, endogenous (protein, UniProt Q86TB9 1-770)
chain: MFRYESLEDCPLDEDEDAFQGLGEEDEEIDQFNDDTFGSGAVDDDWQEAHERLAELEEKLPVAVNEQTGNGERDEMDLLGDHEENLAERLSKMVIENELEDPAIMRAVQTRPVLQPQPGSLNSSIWDGSEVLRRIRGPLLAQEMPTVSVLEYALPQRPPQGPEDDRDLSERALPRRSTSPIIGSPPVRAVPIGTPPKQMAVPSFTQQILCPKPVHVRPPMPPRYPAPYGERMSPNQLCSVPNSSLLGHPFPPSVPPVLSPLQRAQLLGGAQLQPGRMSPSQFARVPGFVGSPLAAMNPKLLQGRVGQMLPPAPGFRAFFSAPPSATPPPQQHPPGPGPHLQNLRSQAPMFRPDTTHLHPQHRRLLHQRQQQNRSQHRNLNGAGDRGSHRSSHQDHLRKDPYANLMLQREKDWVSKIQMMQLQSTDPYLDDFYYQNYFEKLEKLSAAEEIQGDGPKKERTKLITPQVAKLEHAYKPVQFEGSLGKLTVSSVNNPRKMIDAVVTSRSEDDETKEKQVRDKRRKTLVIIEKTYSLLLDVEDYERRYLLSLEEERPALMDDRKHKICSMYDNLRGKLPGQERPSDDHFVQIMCIRKGKRMVARILPFLSTEQAADILMTTARNLPFLIKKDAQDEVLPCLLSPFSLLLYHLPSVSITSLLRQLMNLPQSAATPALSNPHLTAVLQNKFGLSLLLILLSRGEDLQSSDPATESTQNNQWTEVMFMATRELLRIPQAALAKPISIPTNLVSLFSRYVDRQKLNLLETKLQLVQGIR
On to B1, for which the values for the binding result in test [1], in test [2] and in test [3] were “no binding”, “binds” and “binds”, respectively.

B2: CNOT4, endogenous (protein, UniProt O95628 1-575)
chain: MSRSPDAKEDPVECPLCMEPLEIDDINFFPCTCGYQICRFCWHRIRTDENGLCPACRKPYPEDPAVYKPLSQEELQRIKNEKKQKQNERKQKISENRKHLASVRVVQKNLVFVVGLSQRLADPEVLKRPEYFGKFGKIHKVVINNSTSYAGSQGPSASAYVTYIRSEDALRAIQCVNNVVVDGRTLKASLGTTKYCSYFLKNMQCPKPDCMYLHELGDEAASFTKEEMQAGKHQEYEQKLLQELYKLNPNFLQLSTGSVDKNKNKVTPLQRYDTPIDKPSDSLSIGNGDNSQQISNSDTPSPPPGLSKSNPVIPISSSNHSARSPFEGAVTESQSLFSDNFRHPNPIPSGLPPFPSSPQTSSDWPTAPEPQSLFTSETIPVSSSTDWQAAFGFGSSKQPEDDLGFDPFDVTRKALADLIEKELSVQDQPSLSPTSLQNSSSHTTTAKGPGSGFLHPAAATNANSLNSTFSVLPQRFPQFQQHRAVYNSFSFPGQAARYPWMAFPRNSIMHLNHTANPTSNSNFLDLNLPPQHNTGLGGIPVAGEEEVKVSTMPLSTSSHSLQQGQQPTSLHTTVA
For the molecule B2, in test [3], the binding entry is “binds”.
